Out of some 31,000 sequences screened, about 1,400 (4.5%) were called active.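 Rule for the calls: active = median seed-adjusted z-score above 1 or below -1; inactive = the rest.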 The list shows a part of the results.

The test can be described thus: Novel Modifiers of Survival Motor Neuron (SMN) Protein: Gene Identification via Genome-wide siRNA Screen.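 Note: luminescence tracks full-length SMN protein made from the SMN2 reporter.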 As to conditions: HEK293T SMN2-luciferase reporter, siRNA knockdown, 72 h; actives lie on both sides. The procedure, abridged: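 Luciferase signal, proportional to full-length SMN made from an SMN2 cDNA reporter in stable HEK293T cells, was read 72 h after siRNA reverse transfection. Values were expressed as MAD scores after non-targeting-control normalization and log10 conversion; seed analysis flagged off-targets.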
In the case of GUGAGUACUUUACUAGAUATT against ADAM30, the median seed-adjusted z-score was inactive: 0.0576. GAAUUACUCUGCCUCUAAATT against TAF7: the median seed-adjusted z-score was inactive: -0.593.

With GACGAAAAGAUGAACAUUATT against ARFGAP3, the median seed-adjusted z-score was inactive: 0.00412. With ACACCAGGAUGAACGAGGATT against PAK4 the figure was inactive: -0.742. Consider GCACAUGAGAUCUUCGAAATT against SUPV3L1, for which the median seed-adjusted z-score was inactive: -0.169. Consider GAAACACGUCAGUCCUAAUTT against LHX8, for which the median seed-adjusted z-score is inactive: 0. For the sequence GUCACUAGCUUAUCUUGAATT against VEGFA, the median seed-adjusted z-score was inactive: 0.495. Next, GAGUGUAUCCUGUUUAUUATT against PPP2R4: inactive: 0.318. For GGCCAUGAACCGCAUCUGUTT against GUK1, the median seed-adjusted z-score is inactive: -0.339. For CCUUCAAGCUGCAGACUAATT against THBS4, the median seed-adjusted z-score was inactive: -0.28.

In the case of GGCCUUUGCUGAGCAGAUATT against ADCK5, the median seed-adjusted z-score is inactive: 0.958. In the case of UCCUGUUCCUAGUCAUUUATT against GNGT2, the median seed-adjusted z-score is inactive: -0.289. With CCAGUUUGAUUUCAAUAAATT against CENPB, the median seed-adjusted z-score is inactive: 0.292. In the case of ACAGCGUGGUGUCUCCUCATT against PMM1, the median seed-adjusted z-score was inactive: -0.597.

As for GCAUAGUAAUGUUCGUCAUTT against SLC12A2, the median seed-adjusted z-score was inactive: -0.4. For GGCUUGUGCUAAUCAGAGATT against AK5, the median seed-adjusted z-score is inactive: -0.0461. Next, GGUGAACUUCUACAACAAUTT against DPEP1: inactive: -0.886; CCAGCAAAGAGGUCUAUCATT against GCNT3: inactive: 0; GCAGAACCGUGAAAAAGGATT against DERA: inactive: -0.197. Take GAAGAAAACGAAAUGAUCATT against MLN: the median seed-adjusted z-score was inactive: -0.422. On to CAGACAUACUCCAUAGAUATT against RHEB, for which the median seed-adjusted z-score is inactive: -0.387. With CCCUUAGUCAGUUCCCAGATT against KCNA10 the figure was inactive: 0.00887; with ACAGAAAGCCUGAGCUUGATT against SLC7A5, inactive: 0.00397. As for GCCCAUUGGUUUCCGAGAATT against CMYA5, the median seed-adjusted z-score is inactive: -0.858. Take GGACAGCUUUUGAUUUAUUTT against INTS6: the median seed-adjusted z-score is inactive: -0.0163. Regarding GGAGGACUAGGCUCCAUUATT against ARPC5L, the median seed-adjusted z-score was inactive: -0.36.

As for GGAAUUACGGAGAUAUAGATT against TRRAP, the median seed-adjusted z-score was active: -1.25. Take AGAUGAUCUUGUUUCAUCUTT against NRXN3: the median seed-adjusted z-score is inactive: 0.897. GUAUCGGAACAGUACAACATT against ABCA5: the median seed-adjusted z-score was inactive: -0.376. As for CCAUGAUCAUGGACUCCAUTT against FAM62A, the median seed-adjusted z-score is inactive: -0.34. Take AUAUUAACCUGGUACAUGATT against ATP5L: the median seed-adjusted z-score was inactive: -0.295. Turning to GGGCAAUGAUAGAAAGAAUTT against STK35, the median seed-adjusted z-score is inactive: 0.519. With CAACUACAGUUUCUCAACATT against EYA3 the figure was inactive: -0.0191; with GGACUACACGUACUUCUCATT against KIRREL3, inactive: -0.206. As to CGACAGGAGUGGUUCUAGATT against ACTR1B, the median seed-adjusted z-score is inactive: -0.18. As for GAAUCUUAGUCAACAUGGATT against GRHL3, the median seed-adjusted z-score is inactive: -0.0434. With GCUUGAUAAUAAGCAUACATT against PPWD1, the median seed-adjusted z-score was inactive: -0.341. For the sequence GCAUUGAUGGUAACAUGCATT against KIF3A, the median seed-adjusted z-score was inactive: 0.119.

On to GCUCUUACUUUGGAUAUCATT against MYO9A, for which the median seed-adjusted z-score is inactive: -0.567.

For CCAACUCCAUCAGUUCCAATT against PAX6, the median seed-adjusted z-score was inactive: -0.275. As for GUGCUACCGCAGAACCAGATT against CACNG7, the median seed-adjusted z-score is inactive: -0.403. Next, GGAUAAUCAGUAGAAUUCUTT against AGMAT: inactive: -0.0269; CGAAUAGCCUAUGAAGUCATT against AOC2: inactive: 0; CGGCUAGAAGAGGAACAGATT against LSG1: active: 1.31.

Take GGAUGACUACAGGCAAGAATT against GPA33: the median seed-adjusted z-score is inactive: 0.138. On to GCCUGACUCUAAUAUCCGATT against LBP, for which the median seed-adjusted z-score was inactive: -0.207.

Take GCUUUUGCAGGAGAAUGAATT against FGL1: the median seed-adjusted z-score was inactive: -0.259. As for GUUGACUACUUACACCUCATT against POLG, the median seed-adjusted z-score was inactive: 0. Regarding GGUUUGCGUUCAGCAUUUATT against PPP3R2, the median seed-adjusted z-score was inactive: -0.143. As for CCAGAAUCACUAGAGCUGATT against MADD, the median seed-adjusted z-score was inactive: 0.363. As to CAGCUAUCAUGGUGAACUUTT against NDUFB1, the median seed-adjusted z-score is inactive: 0.

As for GGUUCAGCUUUAUCUAUAUTT against RNF145, the median seed-adjusted z-score is inactive: -0.554. For the sequence AGCUUCAUCUCAGAGCCUATT against SLC7A10, the median seed-adjusted z-score is inactive: -0.732. For CACUGUAACGACUUCCUUATT against CCIN, the median seed-adjusted z-score was inactive: 0.0472. Take GGUGCUAACUUUGAGUACATT against ECHS1: the median seed-adjusted z-score was inactive: 0.0273. Next, GGAUCUCAUGCACAUCUCATT against PLA2G6: inactive: -0.123; GUGGAGAUGUCAACACCUATT against ZNF526: inactive: 0.0265. As for GCAUAUUCCACUAUCCUAUTT against LNPEP, the median seed-adjusted z-score is inactive: -0.386. For the sequence CAAAGAUGCAGCUAACCUATT against KLC1, the median seed-adjusted z-score is inactive: -0.0912.

On to CAAAAUAUGCAGUUGAAAATT against SDR16C5, for which the median seed-adjusted z-score was inactive: -0.0558.

Take UCAUAUGUCUGGUAAUGCUTT against AMY2B: the median seed-adjusted z-score was inactive: -0.564. With CGCUCACGCUCGUCAUGUUTT against KCNK3 the figure was inactive: 0; with CAGAGGAACUGACACCAUUTT against ETFA, inactive: -0.0619. Turning to GAAAUCAUGUCUCAAUAUATT against PPP1R3C, the median seed-adjusted z-score is inactive: 0.

On to GGAAGAUUGUGCACCGUGATT against SIK2, for which the median seed-adjusted z-score was inactive: 0.055. Take GGGCAUCAGUGCUAAUGGATT against PBX1: the median seed-adjusted z-score was inactive: -0.199. GCGACUACAAGGACAAGUATT against SPAG7: the median seed-adjusted z-score was inactive: 0.263.

On to GCGCAAUACAUGCAAGAUATT against USP47, for which the median seed-adjusted z-score was inactive: 0.3. For GGUUAGUCAUAAAGAUGUATT against CAPZA1, the median seed-adjusted z-score is inactive: -0.0237.

Take GGCCUUCGGCUAAAAGAGATT against KIF22: the median seed-adjusted z-score was inactive: 0.283. Turning to GCCUGAACUUUUCCGAUUATT against RFC4, the median seed-adjusted z-score was inactive: -0.386. In the case of GGAGAUCACUGAUGAGUGUTT against MAPK8IP1, the median seed-adjusted z-score was inactive: 0.576. Next, GCUUUUCCCGGUCAGAUCATT against KLF12: inactive: -0.0892; UCAAGGAGCUCAUACAGGATT against SLC16A3: inactive: -0.353. Next, CUUCUAUGGUGUUUCGAAATT against TDRD7: inactive: 0.11; GCCUCAAUGUGGAUAUGGATT against SYTL4: inactive: 0.694.

In the case of GGAUAUUAUUCAGUGGAGATT against PPP2CB, the median seed-adjusted z-score was inactive: 0.486.

Consider AAGCAGAUACUAAAGGUUUTT against PLAGL1, for which the median seed-adjusted z-score is inactive: 0.0885.

Turning to GGAGAGGAGUUAUCAGGAATT against GBP1, the median seed-adjusted z-score is inactive: -0.232. Next, CUUACUAACCAUAAAGUAATT against ZNF680: inactive: 0.142; GUCUCUGACGGGUCCAUUATT against BMP1: inactive: -0.298; CGUUAACUGCAGACGUAAATT against KIF18A: inactive: -0.159. Take UGCUUAUGAUCAACAUUUATT against LSM3: the median seed-adjusted z-score is active: -1.36. As to GGCUGACAGUAGCUAAGCUTT against RAPGEF4, the median seed-adjusted z-score was inactive: -0.197. Turning to ACAGUGUAUUCAAACAGUATT against NGF, the median seed-adjusted z-score is inactive: -0.325. In the case of CAAGGACAACUCAAACUUATT against PRKACA, the median seed-adjusted z-score was inactive: -0.137.

Turning to GAGAUUGACAAGACCGUGATT against DUS1L, the median seed-adjusted z-score is inactive: 0.0698.

For GGCUAUGACUACAAGGUGATT against CORO2A, the median seed-adjusted z-score was inactive: 0. Next, GGACUGAUCAUGAACCUCUTT against CPEB3: inactive: 0.086.

For the sequence GGAUGUCACUACUGACUGUTT against PPM1J, the median seed-adjusted z-score was inactive: -0.901.

For CCAUGAUAGUGACGAGGCATT against DCTD, the median seed-adjusted z-score was inactive: 0.

As to GGUUUCUAGUGGUAAUAGATT against ARSF, the median seed-adjusted z-score was inactive: 0.111.

Turning to GAAGGAUUCUGAUGUCUUATT against MRGPRX2, the median seed-adjusted z-score was inactive: 0.0476. With AGAUCAACCCAGAUAACUATT against INCENP the figure was inactive: -0.339.

Take CAGACUUAUUGUAACAAGATT against ENPP3: the median seed-adjusted z-score is inactive: 0.66. Take CAUACACCAUGGAGGUAGATT against MYO5B: the median seed-adjusted z-score is inactive: -0.212. With GAAUCGUUACUCUAAAGGATT against CLCN2, the median seed-adjusted z-score was inactive: -0.0786. Take CAAAUACACCGGACGUGAUTT against S100A7A: the median seed-adjusted z-score is inactive: 0.212. Regarding GACUCUGAAAUCAACCUUATT against TREM1, the median seed-adjusted z-score is inactive: 0.

For the sequence GAGUCCGUCUUUUGAAUAATT against RBP4, the median seed-adjusted z-score was inactive: 0.0208. ACAACGACAUUGACUACUATT against GALNT9: the median seed-adjusted z-score is inactive: 0.787. Turning to AGCGAGUGAUGAUCCCUGUTT against DNAJA3, the median seed-adjusted z-score was inactive: -0.0333. As to GAGACAAAGUUCAAAAUGATT against RNASE12, the median seed-adjusted z-score was inactive: -0.16. With GGCUCGAUUUUAUUCUCCATT against KATNA1 the figure was inactive: -0.471. For the sequence CUACGUAAAAGAUCGGGUATT against GDI2, the median seed-adjusted z-score was inactive: -0.161. As to GAGUGACUGUAGAUCAGGATT against ZSCAN29, the median seed-adjusted z-score was inactive: 0.193. On to CGAUUCCGCUACUACCAUUTT against SLC12A6, for which the median seed-adjusted z-score was inactive: 0.155.

These data come from PubChem BioAssay AID1347426 (Functional Genomics Laboratory (NCATS/FGL), 2020).
